At least one structure is not confirmed: it was looked up by name or label, or the drawing left a doubt.
Test system: Human plasma
Experiment: Human plasma anticoagulation, activated partial thromboplastin time (APTT)
Format: biochemical
Details: concentration required to double APTT, linear extrapolation, Hydrochloride
Procedure: Dog plasma and rat plasma are obtained from conscious mixed-breed hounds (either sex, hazelton-LRE, Kalamazoo, Mich., U.S.A.) or from anesthetized male Sprague-Dawley rats (Harlan Sprague-Dawley, Inc., Indianapolis, Ind., U.S.A.) by venipuncture into 3.8 percent citrate. Fibrinogen is prepared from in-date ACD human blood as the fraction I-2 according to previous procedures and specifications. Smith, Blochem. J., 185, 1-11 (1980); and Smith, et al., Biochemistry, 11, 2958-2967 (1972). Human fibrinogen is also purchased as 98 percent pure/plasmin free from American Diagnostica, Greenwich, Conn. Coagulation reagents ACTIN, Thromboplastin, and Human plasma are from Baxter Healthcare Corp., Dade Division, Miami, Fla. Bovine thrombin from Parke-Davis (Ann Arbor, Mich.) is used for coagulation assays in plasma.
Coagulation assay procedures are as previously described. Smith, et al., Thrombosis Research, 50, 163-174 (1988). […] The prothrombin time (PT) is measured by adding 0.05 ml saline and 0.05 ml Thromboplastin-C reagent to 0.05 ml test plasma. The activated partial thromboplastin time (APTT) is measured by incubation of 0.05 ml test plasma with 0.05 ml Actin reagent for 120 seconds followed by 0.05 ml CaCl2 (0.02M). The thrombin time (TT) is measured by adding 0.05 ml saline and 0.05 ml thrombin (10 NIH units/ml) to 0.05 ml test plasma. […]

For CCOC(=O)NC(CC)(Cc1ccccc1)C(=O)N1CCC[C@H]1C(=O)N[C@H](C=O)CCCNC(=N)N.Cl (stereo partly drawn) [Example 13, N-Ethoxycarbonyl-L-phenylalanyl (αethyl)-L-prolinyl-L-arginine Aldehyde Hydrochloride], which “2 × Clotting time APTT” value is on record?
The value was 3,2 00 ng/mL.
